This passage reports binding results from publication PMC4488580.

These are yes or no findings as the source states them, for the method shown. Binding seen in cells or lysates may run through a third protein. Some binding calls cover weakened binding; strength is not graded here. Where a sequence is shown, tags or fusion partners need not be part of it.

The target of this assay is T1, RND3 flag tagged protein (pCMV-Flag-RhoE) expressed in U87 cells (human) (UniProt P61587).
T1 sequence: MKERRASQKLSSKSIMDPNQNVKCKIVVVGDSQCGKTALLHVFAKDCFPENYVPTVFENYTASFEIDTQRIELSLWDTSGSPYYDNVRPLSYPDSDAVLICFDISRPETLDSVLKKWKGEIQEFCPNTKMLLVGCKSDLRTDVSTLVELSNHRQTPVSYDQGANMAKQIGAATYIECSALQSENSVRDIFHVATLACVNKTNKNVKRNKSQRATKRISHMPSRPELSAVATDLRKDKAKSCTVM
Put plainly: co-IP; U87 cells transfected with RND3-Flag or Flag; lysis in 20 mM Tris-HCl pH 7.4, 150 mM NaCl, 1 mM EGTA, 1 mM EDTA, 1% Triton X-100; lysates incubated with 2 ug monoclonal anti-Flag (Sigma M2) for 1 h at 4°C, collected on protein G-Sepharose, western blot. A general note: Immunoblotting shows a protein as a band on a membrane.

B1: MCM3 (protein, UniProt P25205 1-808)
chain: MAGTVVLDDVELREAQRDYLDFLDDEEDQGIYQSKVRELISDNQYRLIVNVNDLRRKNEKRANRLLNNAFEELVAFQRALKDFVASIDATYAKQYEEFYVGLEGSFGSKHVSPRTLTSCFLSCVVCVEGIVTKCSLVRPKVVRSVHYCPATKKTIERRYSDLTTLVAFPSSSVYPTKDEENNPLETEYGLSVYKDHQTITIQEMPEKAPAGQLPRSVDVILDDDLVDKAKPGDRVQVVGTYRCLPGKKGGYTSGTFRTVLIACNVKQMSKDAQPSFSAEDIAKIKKFSKTRSKDIFDQLAKSLAPSIHGHDYVKKAILCLLLGGVERDLENGSHIRGDINILLIGDPSVAKSQLLRYVLCTAPRAIPTTGRGSSGVGLTAAVTTDQETGERRLEAGAMVLADRGVVCIDEFDKMSDMDRTAIHEVMEQGRVTIAKAGIHARLNARCSVLAAANPVYGRYDQYKTPMENIGLQDSLLSRFDLLFIMLDQMDPEQDREISDHVLRMHRYRAPGEQDGDAMPLGSAVDILATDDPNFSQEDQQDTQIYEKHDNLLHGTKKKKEKMVSAAFMKKYIHVAKIIKPVLTQESATYIAEEYSRLRSQDSMSSDTARTSPVTARTLETLIRLATAHAKARMSKTVDLQDAEEAVELVQYAYFKKVLEKEKKRKKRSEDESETEDEEEKSQEDQEQKRKRRKTRQPDAKDGDSYDPYDFSDTEEEMPQVHTPKTADSQETKESQKVELSESRLKAFKVALLDVFREAHAQSIGMNRLTESINRDSEEPFSSVEIQAALSKMQDDNQVMVSEGIIFLI
For B1, the binding entry is reported as “binds”.
